Patent US8092810B2, “Use of polypeptides having antimicrobial activity” (Novozymes A/S, priority 2006, dated 2012)
Values after ≈ are worked out from the molar mass of the structure shown.

What was measured:
[1] = system: Klebsiella pneumoniae ATCC 10031; assay: MIC broth microdilution; assay type: cell-based; conditions: ATCC10031; Klebsiella pneumoniae ATCC 10031, Gram −; MHB, 35° C., 24 hours
Description: (§1) Briefly, the MIC was determined by microbroth dilution assay in a 96 well plate. 4-5 colonies of each bacterium tested were added to 5 ml of MHB, placed in a 35° C. shaker until the OD 600 nm reached 0.08-0.10. The inoculum was diluted 1:100 and 50 microliters were added to each well which contained 50 microliters of serial two fold dilutions of Lento, vancomycin or ciprofloxacin. Each concentration of antibiotic or Lento was tested in duplicate. The plate was placed at 35° C. overnight. MICs were determined after 24 hours incubation and defined by the well containing the lowest amount of antibiotic with no visible growth.

[2] = system: Pseudomonas aeruginosa ATCC 27853; assay: MIC broth microdilution; assay type: cell-based; conditions: ATCC27853; Pseudomonas aeruginosa ATCC 27853, Gram −; MHB, 35° C., 24 hours
Description: as §1

`O=C(O)c1cn(C2CC2)c2cc(N3CCNCC3)c(F)cc2c1=O` [Ciprofloxacin] was tested, and the MIC [1] was 0.0625 µg/mL (≈ 0.189 µM) and the MIC [2] was 0.125 to 0.25 µg/mL (≈ 0.377 to 0.754 µM).
